Among the data in paper PMC2266940 are binding values, retold here.

Test [1] deals with T1, MTGR1 (MTG-related protein 1) (UniProt O43439).
T1 sequence: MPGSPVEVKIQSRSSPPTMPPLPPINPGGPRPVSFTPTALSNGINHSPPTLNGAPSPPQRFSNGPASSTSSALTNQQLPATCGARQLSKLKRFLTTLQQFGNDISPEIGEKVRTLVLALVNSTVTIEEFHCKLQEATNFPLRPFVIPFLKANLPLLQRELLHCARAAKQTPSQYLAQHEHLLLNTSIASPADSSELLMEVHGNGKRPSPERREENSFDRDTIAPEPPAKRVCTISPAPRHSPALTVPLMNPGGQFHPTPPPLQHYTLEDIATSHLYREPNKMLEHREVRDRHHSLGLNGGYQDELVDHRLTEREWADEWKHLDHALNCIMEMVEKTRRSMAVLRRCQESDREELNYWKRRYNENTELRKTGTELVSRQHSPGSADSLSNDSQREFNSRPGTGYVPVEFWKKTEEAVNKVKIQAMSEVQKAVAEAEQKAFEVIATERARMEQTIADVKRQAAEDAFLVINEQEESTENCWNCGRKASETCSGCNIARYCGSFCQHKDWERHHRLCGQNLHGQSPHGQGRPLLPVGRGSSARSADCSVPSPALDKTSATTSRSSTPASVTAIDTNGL
Description: co-IP; COS-7 cells co-transfected with pCMV5 constructs; lysis buffer 250 mM NaCl, 20 mM Na-phosphate, 30 mM Na-pyrophosphate (pH 7.0), 5 mM EDTA, 0.1% NP-40; IP overnight with 1 ug α-hSIN3B, α-ETO, α-MTGR1 or α-MTG16 and protein A-Sepharose; Western blot. For orientation: Immunoblotting shows a protein as a band on a membrane.

Test [2] deals with T2, MTG16 (myeloid-transforming gene 16) (UniProt O75081).
T2 sequence: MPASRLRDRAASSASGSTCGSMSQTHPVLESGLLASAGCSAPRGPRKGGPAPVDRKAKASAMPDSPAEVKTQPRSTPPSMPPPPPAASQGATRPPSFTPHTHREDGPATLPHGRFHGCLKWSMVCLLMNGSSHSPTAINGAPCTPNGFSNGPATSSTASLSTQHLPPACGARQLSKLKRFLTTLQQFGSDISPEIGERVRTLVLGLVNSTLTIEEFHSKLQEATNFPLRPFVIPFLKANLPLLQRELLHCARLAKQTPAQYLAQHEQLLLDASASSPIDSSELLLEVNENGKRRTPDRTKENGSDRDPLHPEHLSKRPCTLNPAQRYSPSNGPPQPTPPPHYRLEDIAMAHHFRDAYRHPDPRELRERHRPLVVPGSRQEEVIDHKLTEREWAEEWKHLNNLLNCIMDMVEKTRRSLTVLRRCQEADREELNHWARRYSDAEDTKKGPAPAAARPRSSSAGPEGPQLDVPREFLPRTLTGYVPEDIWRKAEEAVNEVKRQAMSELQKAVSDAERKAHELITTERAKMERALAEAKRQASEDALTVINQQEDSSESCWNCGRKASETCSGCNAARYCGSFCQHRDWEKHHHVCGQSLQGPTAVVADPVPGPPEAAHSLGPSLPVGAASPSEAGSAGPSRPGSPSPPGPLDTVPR
The description is as above.

Test [3] has as its target T3, ETO lacking 30 amino-terminal aminoacids (UniProt Q06455).
T3 sequence: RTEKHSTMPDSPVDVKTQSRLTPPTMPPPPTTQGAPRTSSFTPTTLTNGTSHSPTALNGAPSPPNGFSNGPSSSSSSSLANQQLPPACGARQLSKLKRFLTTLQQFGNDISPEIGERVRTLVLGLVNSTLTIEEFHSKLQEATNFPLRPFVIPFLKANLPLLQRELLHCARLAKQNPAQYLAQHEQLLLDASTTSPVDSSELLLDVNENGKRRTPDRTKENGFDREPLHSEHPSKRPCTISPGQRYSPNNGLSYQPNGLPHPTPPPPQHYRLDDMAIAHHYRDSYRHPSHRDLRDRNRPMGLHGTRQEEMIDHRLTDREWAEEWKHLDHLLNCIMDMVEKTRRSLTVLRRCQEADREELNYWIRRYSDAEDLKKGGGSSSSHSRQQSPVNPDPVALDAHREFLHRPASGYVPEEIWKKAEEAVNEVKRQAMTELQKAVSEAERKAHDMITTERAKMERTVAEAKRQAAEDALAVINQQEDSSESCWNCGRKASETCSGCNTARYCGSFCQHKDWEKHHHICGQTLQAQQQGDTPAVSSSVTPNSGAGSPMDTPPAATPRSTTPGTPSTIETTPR
The description is as above.

Test [4] concerns the target T4, ETO (eight twenty-one) (UniProt Q06455).
T4 sequence: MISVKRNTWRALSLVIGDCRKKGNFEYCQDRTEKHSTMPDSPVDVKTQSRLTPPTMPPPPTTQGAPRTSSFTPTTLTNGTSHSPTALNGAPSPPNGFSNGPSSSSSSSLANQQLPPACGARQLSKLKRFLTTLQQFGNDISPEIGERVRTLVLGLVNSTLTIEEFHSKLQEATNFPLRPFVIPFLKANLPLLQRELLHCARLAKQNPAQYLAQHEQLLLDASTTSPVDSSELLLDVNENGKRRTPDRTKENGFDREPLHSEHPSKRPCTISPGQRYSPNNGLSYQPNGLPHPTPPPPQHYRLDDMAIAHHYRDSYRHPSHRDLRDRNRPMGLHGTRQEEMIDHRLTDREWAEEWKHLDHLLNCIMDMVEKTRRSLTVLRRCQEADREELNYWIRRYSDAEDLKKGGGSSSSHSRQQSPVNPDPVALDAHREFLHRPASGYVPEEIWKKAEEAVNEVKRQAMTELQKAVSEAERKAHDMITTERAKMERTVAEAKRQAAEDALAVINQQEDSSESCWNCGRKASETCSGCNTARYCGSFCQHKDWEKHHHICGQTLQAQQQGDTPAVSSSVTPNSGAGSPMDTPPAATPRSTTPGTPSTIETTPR
The description is as above.

In test [5] the target is T5, MTGR1-V5 (UniProt O43439).
T5 sequence: T1 sequence
Description: co-IP; COS-7 cells co-transfected with V5-tagged ETO homologues and hSIN3B; IP and Western with α-V5 and α-hSIN3B.

The target in test [6] is T6, ETO-V5 (UniProt Q06455).
T6 sequence: T4 sequence
The description is as above.

Test [7] deals with T7, MTG16-V5 (UniProt O75081).
T7 sequence: T2 sequence
The description is as above.

No constants are given. Whether binding was seen depends on the method and setting. Binding seen in cells or lysates may run through a third protein. For some of these results: Binding calls can cover weak binding; strength is not graded here. For some of these results: Where a sequence is shown, tags or fusion partners need not be part of it.

Turning to human SIN3B, the binding result in test [1] is on record as “no binding”; in test [2], “binds”; in test [3] it was “no binding”; in test [4], “binds”; in test [5] it was “no binding”; in test [6], “binds”. In addition, in test [7], the binding entry is recorded as “binds”.
